According to paper PMC8143644:
Results are given in words; binding and its absence hold for the method and conditions named. In cells and extracts the contact can be indirect. Some binding calls cover weakened binding; strength is not graded here. Where a sequence is shown, tags or fusion partners need not be part of it.

Sequences of proteins named here, by UniProt entry; tags and fusion partners are left off.
UniProt Q9VHS8: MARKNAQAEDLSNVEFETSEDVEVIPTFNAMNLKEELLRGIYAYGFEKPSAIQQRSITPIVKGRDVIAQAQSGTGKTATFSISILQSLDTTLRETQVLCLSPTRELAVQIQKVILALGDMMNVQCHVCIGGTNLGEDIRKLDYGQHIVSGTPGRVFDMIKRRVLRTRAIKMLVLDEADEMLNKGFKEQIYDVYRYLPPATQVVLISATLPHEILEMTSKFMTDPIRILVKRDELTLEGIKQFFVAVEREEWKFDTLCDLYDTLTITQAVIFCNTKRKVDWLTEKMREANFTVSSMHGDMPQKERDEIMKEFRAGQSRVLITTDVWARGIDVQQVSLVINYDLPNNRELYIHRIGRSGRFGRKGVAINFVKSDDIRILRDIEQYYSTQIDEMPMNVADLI

How the values were obtained:
Experiment in all cases: co-IP; HEK293 cells co-transfected with bait and candidate (GFP-tagged bait with HA- or HA-Flag-tagged candidate, GFP-TRAP beads; or HA-Flag-tagged bait with GFP-tagged candidate, anti-Flag antibody); lysates treated with RNase A/T1; Western blot with anti-HA and anti-GFP
[1] = target: T1, Stau (tagged, expressed in HEK293 cells) (Drosophila melanogaster) (UniProt P25159)
T1 sequence: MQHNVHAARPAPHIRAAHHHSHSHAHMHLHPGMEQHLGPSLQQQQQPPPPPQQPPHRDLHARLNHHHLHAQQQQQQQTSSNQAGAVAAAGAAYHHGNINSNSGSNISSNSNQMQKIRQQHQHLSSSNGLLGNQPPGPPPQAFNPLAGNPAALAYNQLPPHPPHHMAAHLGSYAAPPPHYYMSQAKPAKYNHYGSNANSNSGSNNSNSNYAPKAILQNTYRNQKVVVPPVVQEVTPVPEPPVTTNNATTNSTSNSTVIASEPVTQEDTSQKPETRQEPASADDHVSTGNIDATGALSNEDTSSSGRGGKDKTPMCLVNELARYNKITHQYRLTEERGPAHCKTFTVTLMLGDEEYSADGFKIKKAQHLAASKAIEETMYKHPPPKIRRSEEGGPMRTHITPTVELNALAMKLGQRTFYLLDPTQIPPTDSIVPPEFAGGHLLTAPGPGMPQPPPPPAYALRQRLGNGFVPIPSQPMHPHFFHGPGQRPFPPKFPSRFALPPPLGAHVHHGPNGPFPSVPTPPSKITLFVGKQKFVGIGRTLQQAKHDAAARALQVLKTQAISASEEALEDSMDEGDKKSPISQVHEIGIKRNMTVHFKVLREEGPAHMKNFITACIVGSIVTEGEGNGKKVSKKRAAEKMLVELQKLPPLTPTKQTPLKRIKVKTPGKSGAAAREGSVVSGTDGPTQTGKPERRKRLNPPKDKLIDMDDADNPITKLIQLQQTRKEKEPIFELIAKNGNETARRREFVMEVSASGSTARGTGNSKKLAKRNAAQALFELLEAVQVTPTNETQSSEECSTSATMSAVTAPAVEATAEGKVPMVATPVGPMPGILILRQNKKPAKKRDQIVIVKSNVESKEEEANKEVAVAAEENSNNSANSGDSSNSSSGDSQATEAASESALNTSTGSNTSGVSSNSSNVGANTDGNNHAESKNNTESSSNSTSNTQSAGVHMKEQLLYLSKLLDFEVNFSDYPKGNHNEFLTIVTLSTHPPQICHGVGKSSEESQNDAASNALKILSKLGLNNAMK

[2] = target: eIF4AIII (tagged, expressed in HEK293 cells) (Drosophila melanogaster) (UniProt Q9VHS8)
[3] = target: T2, Hrp48 (tagged, expressed in HEK293 cells) (Drosophila melanogaster) (UniProt P48809)
T2 sequence: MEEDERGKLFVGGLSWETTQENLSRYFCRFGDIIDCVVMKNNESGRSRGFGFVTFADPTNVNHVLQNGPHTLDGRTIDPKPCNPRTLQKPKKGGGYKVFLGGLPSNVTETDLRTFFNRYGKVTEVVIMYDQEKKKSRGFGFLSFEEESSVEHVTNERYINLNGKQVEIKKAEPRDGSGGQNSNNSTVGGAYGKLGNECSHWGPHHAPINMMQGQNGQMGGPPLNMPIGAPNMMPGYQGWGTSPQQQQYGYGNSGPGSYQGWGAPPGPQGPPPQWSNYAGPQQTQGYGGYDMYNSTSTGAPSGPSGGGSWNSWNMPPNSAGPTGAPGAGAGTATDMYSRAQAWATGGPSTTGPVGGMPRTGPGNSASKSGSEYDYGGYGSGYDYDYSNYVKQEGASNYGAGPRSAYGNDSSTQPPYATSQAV

B1: Loqs (tagged, expressed in HEK293 cells) (protein, UniProt Q9VJY9 1-465)
chain: MDQENFHGSSLPQQLQNLHIQPQQASPNPVQTGFAPRRHYNNLVGLGNGNAVSGSPVKGAPLGQRHVKLKKEKISAQVAQLSQPGQLQLSDVGDPALAGGSGLQGGVGLMGVILPSDEALKFVSETDANGLAMKTPVSILQELLSRRGITPGYELVQIEGAIHEPTFRFRVSFKDKDTPFTAMGAGRSKKEAKHAAARALIDKLIGAQLPESPSSSAGPSVTGLTVAGSGGDGNANATGGGDASDKTVGNPIGWLQEMCMQRRWPPPSYETETEVGLPHERLFTIACSILNYREMGKGKSKKIAKRLAAHRMWMRLQETPIDSGKISDSICGELEGEPRSSENYYGELKDISVPTLTTQHSNKVSQFHKTLKNATGKKLLKLQKTCLKNNKIDYIKLLGEIATENQFEVTYVDIEEKTFSGQFQCLVQLSTLPVGVCHGSGPTAADAQRHAAQNALEYLKIMTKK
[1]
  binding: binds

B2: Hfp (tagged, expressed in HEK293 cells) (protein, UniProt Q8T6B9 1-637)
chain: MGSNDRASRSPRSDDQREISDMPATKRTRSDSGKSTDSKIPYLSQPLYDLKQTGDVKFGPGTRSALLGLLGGALPKLSSEQHDLVSKAKKYAMEQSIKMVLMKQTLAHQQQQLATQRTQVQRQQALALMCRVYVGSISFELKEDTIRVAFTPFGPIKSINMSWDPITQKHKGFAFVEYEIPEGAQLALEQMNGALMGGRNIKVGRPSNMPQAQQVIDEVQEEAKSFNRIYVASIHPDLSEEDIKSVFEAFGPILYCKLAQGTSLHTHKGYGFIEYANKQAMDEAIASMNLFDLGGQLLRVGRSITPPNALACPTTNSTMPTAAAVAAAAATAKIQALDAVASNAVLGLSQNTPVMAAGAVVTKVGAMPVVSAATSAAALHPALAQAAPALLPPGIFQAPTPVAPSLLGVPAGLQPLQAVVPTLPPPALLATPTLPMTVGGVGVGLVPTVATLAGAEASKGAAAAAALSAAANNAAVTAANLSENIKKAHEKQQEELQKKLMDEGDVQTLQQQENMSIKGQSARQLVMQRLMRPVDSRVIILRNMVGPEDVDETLQEEIQEECSKFGTVSRVIIFNEKQTENEDDDEAEIIVKIFVEFSAGAEAMRGKEALDGRFFGGRRVVAELYDQGIFDQGDLSG
[1]
  binding: binds
[2]
  binding: binds

B3: BicaudalC (tagged, expressed in HEK293 cells) (protein, UniProt Q24009 1-905)
chain: MLSCASFNKLMYPSAADVAKPPMVGLEVEAGSIGSLSSLHALPSTTSVGSGAPSETQSEISSVDSDWSDIRAIAMKLGVQNPDDLHTERFKVDRQKLEQLIKAESSIEGMNGAEYFFHDIMNTTDTYVSWPCRLKIGAKSKKDPHVRIVGKVDQVQRAKERILSSLDSRGTRVIMKMDVSYTDHSYIIGRGGNNIKRIMDDTHTHIHFPDSNRSNPTEKSNQVSLCGSLEGVERARALVRLSTPLLISFEMPVMGPNKPQPDHETPYIKMIETKFNVQVIFSTRPKLHTSLVLVKGSEKESAQVRDATQLLINFACESIASQILVNVQMEISPQHHEIVKGKNNVNLLSIMERTQTKIIFPDLSDMNVKPLKKSQVTISGRIDDVYLARQQLLGNLPVALIFDFPDNHNDASEIMSLNTKYGVYITLRQKQRQSTLAIVVKGVEKFIDKIYEARQEILRLATPFVKPEIPDYYFMPKDKDLNLAYRTQLTALLAGYVDSPKTPSLLPPSLAGQLTPYANNNHLLLNANGLATPTGVCAPTQKYMQLHNSFQQAQNRSMVAGGQSNNGNYLQVPGAVAPPLKPPTVSPRNSCSQNTSGYQSFSSSTTSLEQSYPPYAQLPGTVSSTSSSTAGSQNRAHYSPDSTYGSEGGGVGGGGGGGARLGRRLSDGVLLGLSNSNGGGGNSGGAHLLPGSAESYRSLHYDLGGNKHSGHRAFDFDMKRALGYKAMERTPVAGELRTPTTAWMGMGLSSTSPAPAPLENGENGAAGGGASSGWRLPPGLGSPYGLSATTGLLDATPVNRRMQLAKHKDIQTLLTSLGLEHYIKIFVLNEIDLEVFTTLTEENLMELGIAAFGARKKLLTAIHTLLANEAACSTMPSSSSSQNSSSPRFSGSAAPGAERRPSNQW
[3]
  binding: binds
